Test results published in PMC6048156.
Results are given in words; binding and its absence hold for the method and conditions named. In cells and extracts the contact can be indirect. Some entries that bind do so weakly or less than the wild type. Sequences can lack the tags named with a protein.

The chains behind the UniProt entries cited, without tags or fusion partners.
UniProt P03372: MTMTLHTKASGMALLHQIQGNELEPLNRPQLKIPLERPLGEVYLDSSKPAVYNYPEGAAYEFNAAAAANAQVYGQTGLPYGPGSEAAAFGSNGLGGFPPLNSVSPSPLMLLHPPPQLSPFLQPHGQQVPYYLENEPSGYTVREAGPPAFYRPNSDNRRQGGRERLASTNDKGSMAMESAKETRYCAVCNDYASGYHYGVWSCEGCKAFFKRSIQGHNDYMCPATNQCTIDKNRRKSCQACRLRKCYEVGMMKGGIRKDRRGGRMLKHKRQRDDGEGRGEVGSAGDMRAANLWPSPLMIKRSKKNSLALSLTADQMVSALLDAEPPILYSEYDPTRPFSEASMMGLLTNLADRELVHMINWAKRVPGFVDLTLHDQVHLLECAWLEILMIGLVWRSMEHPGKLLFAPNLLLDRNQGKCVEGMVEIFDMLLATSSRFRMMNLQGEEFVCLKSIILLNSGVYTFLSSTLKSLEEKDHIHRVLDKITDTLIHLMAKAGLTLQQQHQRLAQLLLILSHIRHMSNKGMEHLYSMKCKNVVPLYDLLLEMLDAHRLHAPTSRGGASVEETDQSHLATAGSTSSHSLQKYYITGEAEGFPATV

Biological target: T1, EGFP-WBP2 (WW domain-binding protein 2) (UniProt Q969T9)
T1 sequence: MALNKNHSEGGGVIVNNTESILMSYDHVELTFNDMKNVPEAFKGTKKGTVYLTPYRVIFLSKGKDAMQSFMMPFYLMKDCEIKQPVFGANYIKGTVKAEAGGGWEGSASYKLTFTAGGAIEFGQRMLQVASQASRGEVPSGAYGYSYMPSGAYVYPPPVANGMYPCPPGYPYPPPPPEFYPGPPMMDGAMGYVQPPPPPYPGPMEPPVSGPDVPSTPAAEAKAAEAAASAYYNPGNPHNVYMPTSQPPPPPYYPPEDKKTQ
Assay: co-IP; lysates of MCF-7 cells (EGFP control group and EGFP-WBP2 group) incubated with WBP2 or ERα antibodies overnight, protein A/G beads 3 h at RT, western blotting

Q: “Oestrogen receptor alpha (ERα) (from UniProt P03372 1-595)” was tested. Which binding did it give?
A: binds
